For 2 molecules, binding results are on record in PMC6126864.

Chains of the proteins cited; added tags and fusions are not shown.
UniProt A1ZAJ2: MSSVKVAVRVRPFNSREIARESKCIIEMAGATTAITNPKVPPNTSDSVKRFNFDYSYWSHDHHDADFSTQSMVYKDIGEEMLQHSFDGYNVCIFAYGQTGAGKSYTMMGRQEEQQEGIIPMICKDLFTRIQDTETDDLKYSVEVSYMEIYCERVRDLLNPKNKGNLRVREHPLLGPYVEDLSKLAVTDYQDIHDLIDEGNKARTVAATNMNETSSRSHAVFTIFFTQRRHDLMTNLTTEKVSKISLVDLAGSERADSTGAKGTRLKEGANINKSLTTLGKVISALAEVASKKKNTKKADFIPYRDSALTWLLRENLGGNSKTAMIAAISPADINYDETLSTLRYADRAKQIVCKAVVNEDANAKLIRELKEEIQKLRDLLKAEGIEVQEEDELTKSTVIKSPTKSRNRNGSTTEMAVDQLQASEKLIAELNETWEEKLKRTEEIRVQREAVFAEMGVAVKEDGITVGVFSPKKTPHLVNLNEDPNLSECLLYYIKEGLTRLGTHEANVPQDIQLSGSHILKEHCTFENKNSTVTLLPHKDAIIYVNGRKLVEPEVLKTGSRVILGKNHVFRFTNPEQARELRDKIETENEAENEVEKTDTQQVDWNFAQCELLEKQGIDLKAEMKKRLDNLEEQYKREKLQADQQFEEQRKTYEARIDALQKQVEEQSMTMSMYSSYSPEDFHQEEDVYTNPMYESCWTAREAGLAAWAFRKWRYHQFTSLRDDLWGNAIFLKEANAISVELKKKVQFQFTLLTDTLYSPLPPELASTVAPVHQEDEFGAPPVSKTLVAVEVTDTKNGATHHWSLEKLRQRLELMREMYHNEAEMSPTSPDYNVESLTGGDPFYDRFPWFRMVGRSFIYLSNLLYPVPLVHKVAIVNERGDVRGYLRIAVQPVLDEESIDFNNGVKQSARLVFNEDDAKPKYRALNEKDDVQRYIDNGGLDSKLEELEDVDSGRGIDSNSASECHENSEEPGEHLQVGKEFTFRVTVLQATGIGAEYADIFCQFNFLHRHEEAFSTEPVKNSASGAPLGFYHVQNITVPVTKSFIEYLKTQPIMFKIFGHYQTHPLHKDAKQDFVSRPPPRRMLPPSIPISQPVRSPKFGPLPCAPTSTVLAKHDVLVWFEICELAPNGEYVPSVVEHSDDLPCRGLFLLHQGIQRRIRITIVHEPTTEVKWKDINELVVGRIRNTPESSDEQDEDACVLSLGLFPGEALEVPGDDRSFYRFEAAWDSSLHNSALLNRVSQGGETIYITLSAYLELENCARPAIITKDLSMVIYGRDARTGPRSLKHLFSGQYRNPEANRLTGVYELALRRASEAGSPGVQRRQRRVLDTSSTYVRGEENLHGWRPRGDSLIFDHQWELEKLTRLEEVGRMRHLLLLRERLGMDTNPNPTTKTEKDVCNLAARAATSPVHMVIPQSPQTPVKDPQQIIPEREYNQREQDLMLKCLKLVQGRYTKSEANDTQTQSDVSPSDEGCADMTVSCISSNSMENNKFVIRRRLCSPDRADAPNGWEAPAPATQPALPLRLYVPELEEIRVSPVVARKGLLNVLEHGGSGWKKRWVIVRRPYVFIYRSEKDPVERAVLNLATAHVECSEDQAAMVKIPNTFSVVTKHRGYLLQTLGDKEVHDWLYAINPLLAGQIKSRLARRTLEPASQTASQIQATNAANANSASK

One test addresses T1, Flag-Rab5 (Drosophila) (UniProt Q9V3I2).
T1 sequence: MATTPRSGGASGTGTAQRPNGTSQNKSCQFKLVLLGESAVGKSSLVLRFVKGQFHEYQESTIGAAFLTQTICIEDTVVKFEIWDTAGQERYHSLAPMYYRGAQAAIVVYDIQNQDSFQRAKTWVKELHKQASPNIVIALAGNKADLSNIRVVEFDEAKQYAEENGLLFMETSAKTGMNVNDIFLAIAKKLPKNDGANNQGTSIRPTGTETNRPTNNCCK
Kind of test: co-IP; S2 cells co-transfected with the two tagged proteins; lysate (25 mM Tris pH 8, 27.5 mM NaCl, 20 mM KCl, 0.5% Nonidet P40) immunoprecipitated with anti-Myc, anti-Flag or anti-HA overnight at 4°C, protein A/G beads, washed four times with cold PBS; western blot. In general terms: In western blotting, separated proteins are transferred to a membrane and probed.

Test [1] addresses Imac-HA (immaculate connections / Uncoordinated-104) (Drosophila) (UniProt A1ZAJ2). The test is described as above.

These are yes or no findings as the source states them, for the method shown. Binding seen in cells or lysates may run through a third protein. Tags and fused reporters may be left off the sequences shown.

Regarding “Imac-HA (immaculate connections / Uncoordinated-104) (from UniProt A1ZAJ2 1-1670)”, the binding result with Flag-Rab5 (Drosophila) was “no binding”.

B1: Flag-Rab5 (protein, UniProt Q9V3I2 1-219)
chain: T1 sequence
Take B1: in test [1], the binding entry is “no binding”.
